From ChEMBL document CHEMBL3988442, “University of Dundee, Small-Polar-MMV Screening Library” (2021).

Protein sequences, listed by entry. Tags and fused reporters are not part of them. Residues count along the entry.
UniProt P9WPC5, whole entry: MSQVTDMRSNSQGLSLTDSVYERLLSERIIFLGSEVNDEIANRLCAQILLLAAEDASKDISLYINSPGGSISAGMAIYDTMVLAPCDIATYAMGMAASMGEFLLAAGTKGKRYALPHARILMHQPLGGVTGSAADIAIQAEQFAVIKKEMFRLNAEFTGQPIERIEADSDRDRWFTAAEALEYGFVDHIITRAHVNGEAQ
UniProt P9WPC3, whole entry partner: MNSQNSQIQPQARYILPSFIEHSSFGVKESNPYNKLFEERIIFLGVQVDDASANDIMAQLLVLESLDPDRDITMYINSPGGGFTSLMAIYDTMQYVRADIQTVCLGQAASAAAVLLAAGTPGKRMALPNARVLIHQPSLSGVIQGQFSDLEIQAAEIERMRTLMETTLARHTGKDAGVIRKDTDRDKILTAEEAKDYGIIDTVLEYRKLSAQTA
UniProt Q4DA54, 1-478: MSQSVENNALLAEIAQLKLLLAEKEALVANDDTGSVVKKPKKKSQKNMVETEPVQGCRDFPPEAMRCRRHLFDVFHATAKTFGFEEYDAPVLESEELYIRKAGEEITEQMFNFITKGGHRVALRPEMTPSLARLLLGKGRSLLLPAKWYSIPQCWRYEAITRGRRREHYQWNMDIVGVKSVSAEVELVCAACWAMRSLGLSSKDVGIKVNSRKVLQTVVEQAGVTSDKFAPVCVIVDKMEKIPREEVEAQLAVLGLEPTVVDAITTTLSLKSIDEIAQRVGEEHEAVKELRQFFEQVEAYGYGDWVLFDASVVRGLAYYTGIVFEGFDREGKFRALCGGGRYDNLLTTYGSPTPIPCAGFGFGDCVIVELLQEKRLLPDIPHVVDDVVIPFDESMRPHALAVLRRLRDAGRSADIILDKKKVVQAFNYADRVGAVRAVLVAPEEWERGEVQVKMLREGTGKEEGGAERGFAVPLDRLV
UniProt Q8IDJ8, 1-583: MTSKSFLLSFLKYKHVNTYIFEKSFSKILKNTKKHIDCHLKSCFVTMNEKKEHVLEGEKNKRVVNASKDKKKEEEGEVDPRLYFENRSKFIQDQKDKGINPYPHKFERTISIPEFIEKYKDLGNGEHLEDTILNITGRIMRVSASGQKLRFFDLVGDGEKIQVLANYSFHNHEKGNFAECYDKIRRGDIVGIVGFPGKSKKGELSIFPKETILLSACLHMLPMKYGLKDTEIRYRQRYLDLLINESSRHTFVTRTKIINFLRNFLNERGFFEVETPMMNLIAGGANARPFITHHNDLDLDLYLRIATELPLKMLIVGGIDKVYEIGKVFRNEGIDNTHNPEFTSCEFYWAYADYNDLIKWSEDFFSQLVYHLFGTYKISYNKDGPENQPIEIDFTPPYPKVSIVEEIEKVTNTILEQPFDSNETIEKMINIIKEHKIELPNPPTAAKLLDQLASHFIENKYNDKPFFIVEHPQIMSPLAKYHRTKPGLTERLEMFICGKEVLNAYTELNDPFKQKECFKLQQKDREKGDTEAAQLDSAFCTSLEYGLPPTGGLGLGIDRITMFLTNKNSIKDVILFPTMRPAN
UniProt I6X8D2, whole entry: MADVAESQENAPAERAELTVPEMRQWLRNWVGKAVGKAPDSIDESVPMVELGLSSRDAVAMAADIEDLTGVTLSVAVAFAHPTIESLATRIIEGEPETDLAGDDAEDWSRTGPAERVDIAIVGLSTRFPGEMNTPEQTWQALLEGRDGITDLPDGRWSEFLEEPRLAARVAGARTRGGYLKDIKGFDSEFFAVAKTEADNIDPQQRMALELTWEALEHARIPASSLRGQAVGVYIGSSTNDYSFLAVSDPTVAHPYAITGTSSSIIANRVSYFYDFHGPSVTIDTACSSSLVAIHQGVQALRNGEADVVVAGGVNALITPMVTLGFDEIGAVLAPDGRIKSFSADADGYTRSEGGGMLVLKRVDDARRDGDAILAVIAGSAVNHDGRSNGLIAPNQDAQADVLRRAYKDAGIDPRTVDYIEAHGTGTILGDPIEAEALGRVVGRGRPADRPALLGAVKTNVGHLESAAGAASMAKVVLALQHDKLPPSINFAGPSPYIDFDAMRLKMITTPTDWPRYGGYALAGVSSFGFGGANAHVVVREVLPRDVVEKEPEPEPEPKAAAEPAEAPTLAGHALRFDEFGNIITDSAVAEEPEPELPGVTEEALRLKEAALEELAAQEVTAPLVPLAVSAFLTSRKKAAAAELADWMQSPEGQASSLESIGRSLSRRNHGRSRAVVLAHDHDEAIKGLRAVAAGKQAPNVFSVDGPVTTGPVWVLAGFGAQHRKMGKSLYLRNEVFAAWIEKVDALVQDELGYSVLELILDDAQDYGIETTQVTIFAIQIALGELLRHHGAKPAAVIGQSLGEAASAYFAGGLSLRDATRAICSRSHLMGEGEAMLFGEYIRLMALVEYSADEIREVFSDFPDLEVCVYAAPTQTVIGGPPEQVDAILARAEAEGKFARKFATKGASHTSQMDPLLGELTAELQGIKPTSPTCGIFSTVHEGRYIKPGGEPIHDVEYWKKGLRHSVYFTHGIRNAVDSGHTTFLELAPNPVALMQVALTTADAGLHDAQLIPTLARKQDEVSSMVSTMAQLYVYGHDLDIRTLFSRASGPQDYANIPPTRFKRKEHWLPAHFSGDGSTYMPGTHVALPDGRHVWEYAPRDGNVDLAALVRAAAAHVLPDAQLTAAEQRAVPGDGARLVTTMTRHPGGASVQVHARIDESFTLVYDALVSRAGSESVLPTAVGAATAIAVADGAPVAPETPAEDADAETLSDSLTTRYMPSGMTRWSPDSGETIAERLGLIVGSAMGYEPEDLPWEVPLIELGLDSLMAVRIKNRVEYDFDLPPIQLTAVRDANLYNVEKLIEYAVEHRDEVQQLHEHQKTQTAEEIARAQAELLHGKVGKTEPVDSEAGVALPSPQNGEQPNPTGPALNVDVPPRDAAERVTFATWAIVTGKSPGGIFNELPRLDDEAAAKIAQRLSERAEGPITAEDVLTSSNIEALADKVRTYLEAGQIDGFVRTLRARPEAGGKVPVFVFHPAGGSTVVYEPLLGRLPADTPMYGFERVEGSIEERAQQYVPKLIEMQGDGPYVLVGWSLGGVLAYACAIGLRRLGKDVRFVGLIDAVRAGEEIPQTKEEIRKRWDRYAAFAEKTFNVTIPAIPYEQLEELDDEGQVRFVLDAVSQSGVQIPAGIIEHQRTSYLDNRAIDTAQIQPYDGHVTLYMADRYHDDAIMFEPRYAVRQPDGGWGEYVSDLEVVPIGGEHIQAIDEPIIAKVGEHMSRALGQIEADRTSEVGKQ

ClpP1P2: 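ClpP1P2, Mycobacterium tuberculosis (UniProt P9WPC5 and UniProt P9WPC3). Protease assay of ClpP1P2, read by the AMC dye that it sets free. Compounds at 50 µM. Direction is inferred from only a few compounds that gave an IC50; most scored high, so higher reads as stronger inhibition. Most other retested compounds had strongly negative values. Of about 69,000 compounds tested this way, about 10 (0.015%) reached 50% or more in at least one test.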
TcHisRS: 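Histidine-tRNA ligase, Trypanosoma cruzi CL Brener (UniProt Q4DA54). Enzyme assay of histidyl-tRNA synthetase; the read-out is not stated. Compounds at 30 µM. The record gives no direction; compounds that gave an IC50 in retests scored well above the rest, so higher reads as stronger inhibition. About 69,000 compounds were tested under these conditions; 0.045% (about 31) showed 50% or more at least once.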
PfKRS1: 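Lysine-tRNA ligase, Plasmodium falciparum 3D7 (UniProt Q8IDJ8). Enzyme assay of the cytosolic lysyl-tRNA synthetase in 384-well plates, read by luminescence. Compounds at 30 µM. Direction is inferred from only a few compounds that gave an IC50; most scored high, so higher reads as stronger inhibition. Of about 69,000 compounds tested this way, about 49 (0.071%) reached 50% or more in at least one test.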
Pks13 thioesterase: 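Polyketide synthase Pks13, Mycobacterium tuberculosis (UniProt I6X8D2). Enzyme assay of the thioesterase domain of polyketide synthase 13; the read-out is not stated. Concentration: 30 µM. The record gives no direction; the compounds picked for IC50 retests had high values, so higher reads as stronger inhibition. About 67,000 compounds were tested under these conditions; 0.46% (about 300) showed 50% or more at least once.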

Each number is a percent effect as filed.
The controls that fix the scale are not given in the record; negative values are as filed.
The compounds are a random part of those screened.
A dash means the value is not listed here; it may have been measured.

| SMILES | ClpP1P2 | TcHisRS | PfKRS1 | Pks13 thioesterase |
|---|---|---|---|---|
| `O=C(Nc1ccccc1)C1CN(Cc2ccco2)CC12CCOCC2` (centres undefined) | -4.912% | 5.941% | 4.269% | -24.95% |
| `Cc1cc(N(C)Cc2ncc[nH]2)nc(-c2cccnc2)n1` | -3.71% | 5.844% | 6.694% | 4.174% |
| `N#Cc1ccccc1N1CCN(C(=O)NCCN2CCOCC2)CC1` | 2.191% | 2.041% | 6.635% | -11.05% |
| `CC(=O)NCCCNC(=O)N1CCN(c2cc(F)ccc2F)CC1` | -5.902% | 0.8696% | 7.161% | -8.824% |
| `CC(O)CN1CCC(CNCCOCC(F)(F)F)CC1` (centres undefined) | -5.967% | 1.961% | -6.963% | -30.79% |
| `Cc1ccccc1N1CCN(c2cc(N(C)C)ncn2)C(C)C1` (centres undefined) | -2.729% | 2.463% | 5.398% | -3.901% |
| `Cc1ccc(CN2CCN(CC3CC3)[C@@H]3CS(=O)(=O)C[C@@H]32)cc1C` | -23.18% | 5.394% | 8.565% | -15.68% |
| `COc1cccc(-c2nc3c([nH]2)CCNC3)c1F` | -0.3232% | 7.263% | 2.243% | -15.49% |
| `CC(=O)NCCCNCc1c(C)nn(CC(C)C)c1N(C)C` | -14.33% | 5.202% | -0.9476% | -10.38% |
| `CCOc1ccc(CN2CC[C@@](C)(O)[C@@H](Cc3ccccc3)C2)cn1` | -9.403% | 1.948% | -0.5245% | -30.32% |
| `CC(C)n1cc(S(=O)(=O)N2CCSCC2)cn1` | -8.176% | 5.217% | 4.077% | -15.73% |
| `CC(C)N(CCNC(=O)c1[nH]nc2ccc(I)cc12)C(C)C` | -5.668% | 9.195% | 3.29% | 4.066% |
| `CN(Cc1cncnc1)Cc1cn2c(n1)CN(C1CCOC1)CC2` (centres undefined) | 7.089% | -0.5405% | 5.505% | -9.69% |
| `Cc1ccc(SC2CCCC2)c(C(=O)NCCc2n[nH]c(=O)[nH]2)c1` | -2.347% | 1.754% | 6.934% | -8.996% |
| `CCCS(=O)(=O)N(C)C(=O)CCc1ccccc1` | -11.43% | 0% | 3.523% | 2.036% |
| `CC(C)NC(=O)N1CCC2(CC1)[C@@H]1CN(C(=O)N(C)C)C[C@@H]1C(=O)N2C` | -21.48% | 2.913% | 1.904% | -10.17% |
| `COCC1CN(S(=O)(=O)C2CC2)Cc2ncn(CC3CC3)c21` (centres undefined) | 13.17% | 6.542% | 0.9492% | -28.94% |
| `O=S1(=O)C[C@@H]2[C@H](C1)N(Cc1cc(Cl)cc(Cl)c1)CCN2CC1CC1` | -30.4% | 6.224% | 11.1% | -18.62% |
| `O=C(NC[C@H]1OC[C@@H](NCc2ccccc2F)[C@@H]1O)Nc1ccccc1` | -9.408% | 1.493% | 4.684% | -29.75% |
| `Cc1nc(C(=O)N2CCC(Nc3cccnn3)CC2)cs1` | 4.341% | -2.642% | 0.7801% | -25.41% |
| `c1ccc(Cc2noc(CN(Cc3cccs3)CC3CCCO3)n2)cc1` (centres undefined) | -6.912% | 6.197% | 0.2489% | 4.978% |
| `Cc1cc(C)n(C2CCCN(C(=O)c3c(C)noc3C)C2)n1` (centres undefined) | -15.95% | 5.042% | -1.312% | -1.419% |
| `O=C(CCCOc1ccccc1F)NCCCC(=O)Nc1cn[nH]c1` | -4.951% | 10% | 4.803% | - |
| `COCC1CN(C(=O)Nc2cc(-n3cccc3)ccc2F)CCO1` (centres undefined) | 12.38% | 3.448% | 9.476% | -21.23% |
| `Cn1nc(C2CCCN(Cc3cccs3)C2)c2nccnc21` (centres undefined) | -6.739% | -9.574% | 1.784% | 12.98% |
| `CC(=O)Nc1ccc(SCC(O)COCc2ccc3c(c2)OCO3)cc1` (centres undefined) | -19.96% | 2.083% | 4.689% | 8.089% |
| `COCCn1ccnc1C1CCCN(C(=O)c2cccnc2SC)C1` (centres undefined) | -15.2% | 4.95% | 2.671% | 25.24% |
| `CNC(=O)NCC(=O)N(C)C(c1ccc(Cl)cc1)c1cccnc1` (centres undefined) | 16.97% | 2.97% | 0.06793% | 26.82% |
| `CC(C(=O)N1CCCN(c2ncccc2C#N)CC1)n1cncn1` (centres undefined) | -43.02% | 1.734% | 2.303% | -4.729% |
| `Cc1ccc(-c2nc(CN3CCOCC3)no2)cc1N1CCNC1=O` | -7.209% | 0.8929% | 6.922% | -23.97% |
| `CCN1CC[C@]2(CN(Cc3nccs3)C[C@H]2c2ccccc2)C1=O` | -7.388% | 4.598% | 4.791% | 2.56% |
| `N#CCSCCCN1CCC(C(=O)N2CCCCCC2)CC1` | 17.92% | 4.046% | 6.417% | -9.363% |
| `O=S1(=O)NCC2(CCNCC2)COc2ccccc21` | 6.38% | 10.13% | 9.191% | -21.28% |
| `CC1(C)CN(Cc2cc(C3CCCCC3)no2)CC[C@]1(C)O` | 0.7171% | 8.108% | 7.649% | -24.16% |
| `Cc1ccsc1CN1CCc2c(nc(N3CCCCC3C)[nH]c2=O)C1` (centres undefined) | -14.01% | -1.099% | 1.646% | 2.312% |
| `c1cnc(-c2nc(CN3CCCC3Cn3cncn3)cs2)nc1` (centres undefined) | -13.85% | 3.429% | -0.1315% | -7.813% |
| `O=C(CCN1CCOCC1)NC1CCCN(CC2CCCCC2)C1` (centres undefined) | -12.84% | -0.8% | 4.397% | -5.396% |

Once more, the final 4:

{"smiles": "CC1(C)CN(Cc2cc(C3CCCCC3)no2)CC[C@]1(C)O", "ClpP1P2": 0.7171, "TcHisRS": 8.108, "PfKRS1": 7.649, "Pks13 thioesterase": -24.16}
{"smiles": "Cc1ccsc1CN1CCc2c(nc(N3CCCCC3C)[nH]c2=O)C1", "stereo": "centres undefined", "ClpP1P2": -14.01, "TcHisRS": -1.099, "PfKRS1": 1.646, "Pks13 thioesterase": 2.312}
{"smiles": "c1cnc(-c2nc(CN3CCCC3Cn3cncn3)cs2)nc1", "stereo": "centres undefined", "ClpP1P2": -13.85, "TcHisRS": 3.429, "PfKRS1": -0.1315, "Pks13 thioesterase": -7.813}
{"smiles": "O=C(CCN1CCOCC1)NC1CCCN(CC2CCCCC2)C1", "stereo": "centres undefined", "ClpP1P2": -12.84, "TcHisRS": -0.8, "PfKRS1": 4.397, "Pks13 thioesterase": -5.396}